Reference: the supplement of paper PMC4604168 (melanoma cell lines)
The list shows a part of the results. Many values rest on one well or one pass, so single values are uncertain.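 Imaging used 1,536-well plates; nuclei positive for cleaved PARP by antibody were divided by total DNA-stained nuclei to yield the apoptosis fraction. Doses for screening kept most cells viable, and cell lines differ markedly in resting and induced cleaved-PARP levels.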

What was measured:
Assay in all cases: cleaved PARP positive nuclei fraction relative to DMSO control; melanoma cells; higher = more apoptosis
Conditions in all cases: library dose: low library concentration; 72 h
[1] = tested on: CBRC034 (line from a melanoma biopsy)
[2] = tested on: COLO792
[3] = tested on: COLO800
[4] = tested on: COLO829
[5] = tested on: G361
[6] = tested on: IPC-298
[7] = tested on: IST-MEL1
[8] = tested on: LB2518-MEL
[9] = tested on: LOXIMVI
[10] = tested on: MEL-HO
[11] = tested on: MZ2-MEL
[12] = tested on: MeWo
[13] = tested on: RPMI7951
[14] = tested on: RVH-421
[15] = tested on: SkMel28
[16] = tested on: SkMel2
[17] = tested on: SkMel30
[18] = tested on: UACC62

SMILES | cleaved PARP positive nuclei fraction [1] | cleaved PARP positive nuclei fraction [2] | cleaved PARP positive nuclei fraction [3] | cleaved PARP positive nuclei fraction [4] | cleaved PARP positive nuclei fraction [5] | cleaved PARP positive nuclei fraction [6] | cleaved PARP positive nuclei fraction [7] | cleaved PARP positive nuclei fraction [8] | cleaved PARP positive nuclei fraction [9] | cleaved PARP positive nuclei fraction [10] | cleaved PARP positive nuclei fraction [11] | cleaved PARP positive nuclei fraction [12] | cleaved PARP positive nuclei fraction [13] | cleaved PARP positive nuclei fraction [14] | cleaved PARP positive nuclei fraction [15] | cleaved PARP positive nuclei fraction [16] | cleaved PARP positive nuclei fraction [17] | cleaved PARP positive nuclei fraction [18]
CC[C@]1(O)C[C@H]2CN(CCc3c([nH]c4ccccc34)[C@@](C(=O)OC)(c3cc4c(cc3OC)N(C=O)[C@H]3[C@@](O)(C(=O)OC)[C@H](OC(C)=O)[C@]5(CC)C=CCN6CC[C@]43[C@@H]65)C2)C1 [vincristine] + Cc1cc(Nc2cc(N3CCN(C)CC3)nc(/C=C/c3ccccc3)n2)n[nH]1 [ENMD2076] (first compound 0.0001 µM, partner dose 0.04 µM) | 50.3% | 185% | 58.1% | 203% | 104% | 169% | 66.4% | 90% | 64.4% | 121% | 85.5% | 274% | 165% | 40.3% | 133% | 88.7% | 420% | 393%
CCCCCCCCCCCCCCCCCCOP(=O)([O-])OC1CC[N+](C)(C)CC1 [Perifosine] + Cn1c(Nc2ccc(C(F)(F)F)cc2)nc2cc(Oc3ccnc(-c4ncc(C(F)(F)F)[nH]4)c3)ccc21 [CHIR265] (first compound 0.4 µM, partner dose 0.08 µM) | 54.7% | 162% | 43% | 113% | 205% | 77.6% | 68.7% | 511% | 113% | 171% | 74.9% | 66.6% | 90.3% | 177% | 79.3% | 347% | 157% | 553%
Cc1cn(-c2cc(NC(=O)c3ccc(C)c(Nc4nccc(-c5cccnc5)n4)c3)cc(C(F)(F)F)c2)cn1 [nilotinib] + Nc1ccn([C@@H]2O[C@H](CO)[C@@H](O)C2(F)F)c(=O)n1 [gemcitabine] (first compound 0.2 µM, partner dose 0.0004 µM) | 50.4% | 34.6% | 92.2% | 87.3% | 127% | 45.2% | 69.3% | 104% | 52% | 187% | 155% | 97.2% | 95.7% | 89.9% | 203% | 167% | 208% | 170%
Cc1cn(-c2cc(NC(=O)c3ccc(C)c(Nc4nccc(-c5cccnc5)n4)c3)cc(C(F)(F)F)c2)cn1 [nilotinib] + CCCCCCCCc1ccc(CCC(N)(CO)CO)cc1 [fingolimod] (first compound 0.2 µM, partner dose 2 µM) | 68.8% | 88.3% | 127% | 119% | 98.2% | 79.5% | 31% | 172% | 94.4% | 215% | 55.6% | 63.8% | 35.9% | 142% | 197% | 101% | 50.9% | 106%
N#CC[C@H](C1CCCC1)n1cc(-c2ncnc3[nH]ccc23)cn1 [ruxolitinib] + Cc1ccc(Nc2nccc(N(C)c3ccc4c(C)n(C)nc4c3)n2)cc1S(N)(=O)=O [Pazopanib] (first compound 1 µM, partner dose 0.4 µM) | 86.5% | 140% | 55.6% | 121% | 187% | 140% | 91.8% | 92.3% | 49.7% | 96.5% | 94.9% | 138% | 66.7% | 161% | 42.6% | 293% | 94.9% | 172%
N#CC[C@H](C1CCCC1)n1cc(-c2ncnc3[nH]ccc23)cn1 [ruxolitinib] + CCCCCCCCc1ccc(CCC(N)(CO)CO)cc1 [fingolimod] (first compound 1 µM, partner dose 2 µM) | 32.3% | 29.5% | 36.3% | 75.4% | 93.7% | 122% | 199% | 88.1% | 211% | 163% | 89.3% | 150% | 139% | 149% | 89.9% | 189% | 71.4% | 40.3%
Cc1ccc(Nc2nccc(N(C)c3ccc4c(C)n(C)nc4c3)n2)cc1S(N)(=O)=O [Pazopanib] + Cn1c(=O)n(-c2ccc(C(C)(C)C#N)cc2)c2c3cc(-c4cnc5ccccc5c4)ccc3ncc21 [NVP-BEZ235] (first compound 0.4 µM, partner dose 0.004 µM) | 79.1% | 123% | 110% | 53.3% | 185% | 116% | 143% | 334% | 33.2% | 33.5% | 27.7% | 708% | 202% | 201% | 104% | 76.3% | 219% | 109%
CCCCCCCCCCCCCCCCCCOP(=O)([O-])OC1CC[N+](C)(C)CC1 [Perifosine] + CN(c1ncccc1CNc1nc(Nc2ccc3c(c2)CC(=O)N3)ncc1C(F)(F)F)S(C)(=O)=O [PF562271] (first compound 0.4 µM, partner dose 0.08 µM) | 229% | 113% | 56.3% | 119% | 119% | 42% | 53.7% | 103% | 47.7% | 38.2% | 95% | 51.1% | 147% | 260% | 46.1% | 84.5% | 51.9% | 161%
CC[C@]1(O)C[C@H]2CN(CCc3c([nH]c4ccccc34)[C@@](C(=O)OC)(c3cc4c(cc3OC)N(C=O)[C@H]3[C@@](O)(C(=O)OC)[C@H](OC(C)=O)[C@]5(CC)C=CCN6CC[C@]43[C@@H]65)C2)C1 [vincristine] + C#Cc1cccc(Nc2ncnc3cc(OCCOC)c(OCCOC)cc23)c1 [erlotinib] (first compound 0.0001 µM, partner dose 0.8 µM) | 301% | 60.4% | 72.4% | 98.6% | 147% | 102% | 208% | 223% | 101% | 86% | 220% | 1690% | 327% | 42.8% | 138% | 373% | 310% | 311%
CC[C@]1(O)C[C@H]2CN(CCc3c([nH]c4ccccc34)[C@@](C(=O)OC)(c3cc4c(cc3OC)N(C=O)[C@H]3[C@@](O)(C(=O)OC)[C@H](OC(C)=O)[C@]5(CC)C=CCN6CC[C@]43[C@@H]65)C2)C1 [vincristine] + CN(c1ncccc1CNc1nc(Nc2ccc3c(c2)CC(=O)N3)ncc1C(F)(F)F)S(C)(=O)=O [PF562271] (first compound 0.0001 µM, partner dose 0.08 µM) | 109% | 98.9% | 108% | 132% | 105% | 44.6% | 138% | 118% | 136% | 130% | 181% | 149% | 79.5% | 208% | 84% | 175% | 291% | 329%
COc1cc([C@@H]2c3cc4c(cc3[C@@H](O[C@@H]3O[C@@H]5CO[C@@H](C)O[C@H]5[C@H](O)[C@H]3O)[C@H]3COC(=O)[C@H]23)OCO4)cc(OC)c1O [etoposide] + C#Cc1cccc(Nc2ncnc3cc(OCCOC)c(OCCOC)cc23)c1 [erlotinib] (first compound 0.02 µM, partner dose 0.8 µM) | 31.6% | 136% | 120% | 77.5% | 48.2% | 50.8% | 61.9% | 126% | 46.4% | 49.3% | 77.1% | 53.2% | 212% | 144% | 97.9% | 5980% | 42.9% | 314%
O=c1[nH]nc(Sc2ncc([N+](=O)[O-])s2)n1-c1ccc2c(c1)OCCO2 + Clc1ccc(Nc2nnc(Cc3ccncc3)c3ccccc23)cc1 [vatalanib] (first compound 0.2 µM, partner dose 2 µM) | 61.9% | 106% | 82.8% | 61.6% | 103% | 97.3% | 63.2% | 249% | 189% | 119% | 26.5% | 129% | 106% | 66.5% | 90.9% | 97.2% | 66.4% | 244%
O=c1[nH]nc(Sc2ncc([N+](=O)[O-])s2)n1-c1ccc2c(c1)OCCO2 + CC(C)C[C@H](NC(=O)[C@H](Cc1ccccc1)NC(=O)c1cnccn1)B(O)O [Bortezomib] (first compound 0.2 µM, partner dose 0.001 µM) | 81.4% | 91.5% | 101% | 44.9% | 64.6% | 194% | 92.7% | 63.6% | 64.8% | 31.8% | 74.7% | 61.9% | 133% | 29.6% | 67.6% | 52.2% | 134% | 36.4%
Cc1ccc(Nc2nccc(N(C)c3ccc4c(C)n(C)nc4c3)n2)cc1S(N)(=O)=O [Pazopanib] + COCC[n+]1c2c(n(Cc3cnccn3)c1C)C(=O)c1ccccc1C2=O [YM155] (first compound 0.4 µM, partner dose 0.0004 µM) | 42% | 70.6% | 294% | 70.3% | 74.4% | 200% | 144% | 157% | 89.6% | 58.2% | 78.1% | 64.9% | 49.1% | 144% | 184% | 159% | 115% | 115%
N#CC[C@H](C1CCCC1)n1cc(-c2ncnc3[nH]ccc23)cn1 [ruxolitinib] + Nc1ccn([C@@H]2O[C@H](CO)[C@@H](O)C2(F)F)c(=O)n1 [gemcitabine] (first compound 1 µM, partner dose 0.0004 µM) | 72.6% | 98.5% | 46.7% | 72.8% | 165% | 62.4% | 54.9% | 93.2% | 101% | 62.1% | 129% | 99.8% | 59.1% | 207% | 97.8% | 113% | 105% | 61.2%
O=c1[nH]nc(Sc2ncc([N+](=O)[O-])s2)n1-c1ccc2c(c1)OCCO2 + Cc1cn(-c2cc(NC(=O)c3ccc(C)c(Nc4nccc(-c5cccnc5)n4)c3)cc(C(F)(F)F)c2)cn1 [nilotinib] (first compound 0.2 µM, partner dose 0.2 µM) | 57.8% | 79.7% | 67.9% | 31.4% | 70.7% | 123% | 267% | 38.9% | 54.5% | 26.5% | 42.2% | 113% | 129% | 45.1% | 73.8% | 127% | 83.1% | 95.6%
O=c1[nH]nc(Sc2ncc([N+](=O)[O-])s2)n1-c1ccc2c(c1)OCCO2 + CN1CCN(c2ccc3nc(-c4c(N)c5c(F)cccc5[nH]c4=O)[nH]c3c2)CC1 [Dovitinib] (first compound 0.2 µM, partner dose 0.1 µM) | 138% | 25.3% | 191% | 84.3% | 81.8% | 55.2% | 43% | 62.2% | 207% | 147% | 102% | 74.1% | 238% | 62.4% | 81.6% | 65.3% | 74.7% | 203%

Rewritten in markdown: entries from further up.

| SMILES | cleaved PARP positive nuclei fraction [1] | cleaved PARP positive nuclei fraction [2] | cleaved PARP positive nuclei fraction [3] | cleaved PARP positive nuclei fraction [4] | cleaved PARP positive nuclei fraction [5] | cleaved PARP positive nuclei fraction [6] | cleaved PARP positive nuclei fraction [7] | cleaved PARP positive nuclei fraction [8] | cleaved PARP positive nuclei fraction [9] | cleaved PARP positive nuclei fraction [10] | cleaved PARP positive nuclei fraction [11] | cleaved PARP positive nuclei fraction [12] | cleaved PARP positive nuclei fraction [13] | cleaved PARP positive nuclei fraction [14] | cleaved PARP positive nuclei fraction [15] | cleaved PARP positive nuclei fraction [16] | cleaved PARP positive nuclei fraction [17] | cleaved PARP positive nuclei fraction [18] |
| --- | --- | --- | --- | --- | --- | --- | --- | --- | --- | --- | --- | --- | --- | --- | --- | --- | --- | --- |
| CC[C@]1(O)C[C@H]2CN(CCc3c([nH]c4ccccc34)[C@@](C(=O)OC)(c3cc4c(cc3OC)N(C=O)[C@H]3[C@@](O)(C(=O)OC)[C@H](OC(C)=O)[C@]5(CC)C=CCN6CC[C@]43[C@@H]65)C2)C1 [vincristine] + CN(c1ncccc1CNc1nc(Nc2ccc3c(c2)CC(=O)N3)ncc1C(F)(F)F)S(C)(=O)=O [PF562271] (first compound 0.0001 µM, partner dose 0.08 µM) | 109% | 98.9% | 108% | 132% | 105% | 44.6% | 138% | 118% | 136% | 130% | 181% | 149% | 79.5% | 208% | 84% | 175% | 291% | 329% |
| COc1cc([C@@H]2c3cc4c(cc3[C@@H](O[C@@H]3O[C@@H]5CO[C@@H](C)O[C@H]5[C@H](O)[C@H]3O)[C@H]3COC(=O)[C@H]23)OCO4)cc(OC)c1O [etoposide] + C#Cc1cccc(Nc2ncnc3cc(OCCOC)c(OCCOC)cc23)c1 [erlotinib] (first compound 0.02 µM, partner dose 0.8 µM) | 31.6% | 136% | 120% | 77.5% | 48.2% | 50.8% | 61.9% | 126% | 46.4% | 49.3% | 77.1% | 53.2% | 212% | 144% | 97.9% | 5980% | 42.9% | 314% |
